Results deposited as PubChem BioAssay AID1259424 (University of Nebraska Medical Center, 2018).

Purpose: 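Find knockdowns that reproduce the expression shifts seen after KSR1 loss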 (primary screen)
Cells: human HCT116 colon cancer cells
Reagent: siRNA pool against human genes, 50 nM
Read-out: 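Six signature mRNAs by branched-DNA multiplex assay, scaled to two housekeeping genes and non-targeting median, log2; matched to mean KSR1 knockdown profile by Pearson correlation and euclidean distance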
Reading the numbers: mean correlation with KSR1 profile and KSR1 correlation: higher = expression change more like KSR1 knockdown; mean distance from KSR1 profile: higher = expression change less like KSR1 knockdown
In all, the deposit lists about 14,000 reagents; below is a random part of them. 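Higher correlation or smaller distance means closer resemblance to KSR1 loss; control wells, including KSR1 knockdowns, recur on many plates.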 Further read-outs or replicates are left out here. Not given: the time to read-out.

target | mean correlation with KSR1 profile | mean distance from KSR1 profile | KSR1 correlation, replicate 1 | KSR1 correlation, replicate 2
CRK (CRK proto-oncogene, adaptor protein) | 0.0504 | 2.35 | 0.0365 | -0.164
SLC37A3 | 0.656 | 1.6 | 0.495 | 0.696
GRIK1 (glutamate ionotropic receptor kainate type subunit 1) | 0.269 | 1.7 | 0.477 | -0.0209
UFL1 (UFM1 specific ligase 1) | 0.489 | 1.37 | 0.197 | 0.56
TREX2 (three prime repair exonuclease 2) | -0.106 | 3.08 | 0.0173 | -0.1
MRPS26 (mitochondrial ribosomal protein S26) | -0.594 | 2.74 | -0.693 | -0.716
CIC (capicua transcriptional repressor) | -0.653 | 2.37 | -0.753 | -0.388
SACK1A (scaffolding CK1 anchoring protein A) | 0.466 | 3.79 | 0.452 | 0.408
RETREG1 (reticulophagy regulator 1) | 0.747 | 2.3 | 0.739 | 0.761
KCTD3 (potassium channel tetramerization domain containing 3) | -0.341 | 1.63 | -0.436 | -0.101
SULT1C2 (sulfotransferase family 1C member 2) | -0.193 | 1.49 | -0.000457 | -0.379
RAD1 (RAD1 checkpoint DNA exonuclease) | 0.0873 | 1.96 | -0.192 | 0.153
CST4 (cystatin S) | 0.424 | 3.05 | 0.629 | 0.382
TRIM31 (tripartite motif containing 31) | -0.248 | 4.8 | -0.29 | -0.0209
ADAM3A (ADAM metallopeptidase domain 3A (pseudogene)) | -0.344 | 1.42 | -0.455 | -0.162
ELOA2 (elongin A2) | -0.825 | 3.13 | -0.758 | -0.812
SYNJ2BP (synaptojanin 2 binding protein) | -0.0583 | 6.38 | -0.0163 | -0.167
TOR1A (torsin family 1 member A) | 0.153 | 1.99 | 0.143 | 0.372
PYM1 (PYM1 exon junction complex associated factor) | -0.0356 | 1.76 | -0.126 | -0.101
BTG4 (BTG anti-proliferation factor 4) | -0.464 | 3.54 | -0.499 | -0.628
LUM (lumican) | 0.438 | 0.874 | 0.253 | 0.702
MRPS10 (mitochondrial ribosomal protein S10) | -0.269 | 1.06 | -0.475 | -0.0688
JPH3 (junctophilin 3) | 0.422 | 1.17 | 0.356 | 0.253
TTLL4 (tubulin tyrosine ligase like 4) | -0.227 | 2.33 | -0.32 | -0.149
USP5 (ubiquitin specific peptidase 5) | -0.384 | 1.72 | -0.249 | -0.463
MGAT4B | 0.202 | 2.38 | 0.2 | 0.00665
WDR33 (WD repeat domain 33) | -0.421 | 1.39 | -0.568 | -0.763
FAHD1 (FAH domain containing oxaloacetate decarboxylase 1) | 0.286 | 3.25 | 0.283 | 0.262
PTPRK (protein tyrosine phosphatase receptor type K) | -0.0555 | 1.5 | 0.0832 | -0.602

Part of the list above, reformatted:
ELOA2 (elongin A2)
- mean correlation with KSR1 profile: -0.825
- mean distance from KSR1 profile: 3.13
- KSR1 correlation, replicate 1: -0.758
- KSR1 correlation, replicate 2: -0.812

SYNJ2BP (synaptojanin 2 binding protein)
- mean correlation with KSR1 profile: -0.0583
- mean distance from KSR1 profile: 6.38
- KSR1 correlation, replicate 1: -0.0163
- KSR1 correlation, replicate 2: -0.167

TOR1A (torsin family 1 member A)
- mean correlation with KSR1 profile: 0.153
- mean distance from KSR1 profile: 1.99
- KSR1 correlation, replicate 1: 0.143
- KSR1 correlation, replicate 2: 0.372

PYM1 (PYM1 exon junction complex associated factor)
- mean correlation with KSR1 profile: -0.0356
- mean distance from KSR1 profile: 1.76
- KSR1 correlation, replicate 1: -0.126
- KSR1 correlation, replicate 2: -0.101

BTG4 (BTG anti-proliferation factor 4)
- mean correlation with KSR1 profile: -0.464
- mean distance from KSR1 profile: 3.54
- KSR1 correlation, replicate 1: -0.499
- KSR1 correlation, replicate 2: -0.628

LUM (lumican)
- mean correlation with KSR1 profile: 0.438
- mean distance from KSR1 profile: 0.874
- KSR1 correlation, replicate 1: 0.253
- KSR1 correlation, replicate 2: 0.702

MRPS10 (mitochondrial ribosomal protein S10)
- mean correlation with KSR1 profile: -0.269
- mean distance from KSR1 profile: 1.06
- KSR1 correlation, replicate 1: -0.475
- KSR1 correlation, replicate 2: -0.0688

Next reagents follow.
target | mean correlation with KSR1 profile | mean distance from KSR1 profile | KSR1 correlation, replicate 1 | KSR1 correlation, replicate 2
COL1A2 (collagen type I alpha 2 chain) | 0.0192 | 3.35 | 0.0248 | 0.0946
FAM13B (family with sequence similarity 13 member B) | -0.0278 | 1.44 | -0.0725 | 0.211
NCR1 (natural cytotoxicity triggering receptor 1) | -0.569 | 2.79 | -0.562 | -0.605
KCTD14 (potassium channel tetramerization domain containing 14) | 0.413 | 2.6 | 0.231 | 0.297
CDH26 (cadherin 26) | -0.323 | 1.93 | -0.494 | -0.224
TSPAN8 (tetraspanin 8) | -0.177 | 3.31 | -0.00438 | -0.211
ZNF423 (zinc finger protein 423) | -0.411 | 2.49 | -0.583 | -0.552
EXOG (exo/endonuclease G) | 0.00599 | 1.69 | 0.0505 | -0.0749
SARDH (sarcosine dehydrogenase) | 0.623 | 2.26 | 0.646 | 0.623
CPAP (centrosome assembly and centriole elongation protein) | -0.699 | 3.98 | -0.708 | -0.619
GMPR (guanosine monophosphate reductase) | 0.554 | 0.965 | 0.481 | 0.676
SFXN3 (sideroflexin 3) | 0.162 | 2.38 | 0.0983 | 0.0726
FIP1L1 (factor interacting with PAPOLA and CPSF1) | -0.107 | 3.19 | -0.248 | -0.215
LCMT1 (leucine carboxyl methyltransferase 1) | 0.127 | 2.13 | 0.037 | 0.234
MED26 (mediator complex subunit 26) | -0.209 | 2.64 | -0.21 | -0.12
NDUFS1 (NADH:ubiquinone oxidoreductase core subunit S1) | 0.205 | 1.68 | 0.277 | -0.048
OSTF1 (osteoclast stimulating factor 1) | -0.499 | 2.82 | -0.438 | -0.58
COPS7A (COP9 signalosome subunit 7A) | -0.558 | 2.05 | -0.528 | -0.286
SYVN1 (synoviolin 1) | 0.694 | 2.87 | 0.564 | 0.704
SF3B4 (splicing factor 3b subunit 4) | -0.301 | 2.34 | -0.281 | -0.0759
PSG7 (pregnancy specific beta-1-glycoprotein 7) | 0.935 | 1.08 | 0.964 | 0.923
NKX2-3 (NK2 homeobox 3) | -0.0475 | 1.94 | 0.186 | 0.344
ODF2L (outer dense fiber of sperm tails 2 like) | 0.0246 | 1.33 | -0.193 | 0.256
SUSD6 (sushi domain containing 6) | -0.71 | 2.87 | -0.724 | -0.599
ADAM30 (ADAM metallopeptidase domain 30) | -0.25 | 2.04 | 0.0473 | -0.472
CRLS1 (cardiolipin synthase 1) | -0.279 | 1.55 | -0.401 | 0.00345
PCNX2 (pecanex 2) | 0.0905 | 2.21 | 0.0459 | -0.0172
SMNDC1 (survival motor neuron domain containing 1) | -0.562 | 2.2 | -0.477 | -0.653
E2F8 (E2F transcription factor 8) | 0.29 | 2.71 | 0.312 | 0.413
RFXAP (regulatory factor X associated protein) | 0.195 | 1.96 | 0.275 | 0.324
ALG8 (ALG8 alpha-1,3-glucosyltransferase) | 0.239 | 1.35 | 0.426 | 0.492
UBAC1 (UBA domain containing 1) | -0.00804 | 2.15 | 0.0242 | 0.0433
ZNF292 (zinc finger protein 292) | -0.621 | 1.95 | -0.384 | -0.877
ETNPPL (ethanolamine-phosphate phospho-lyase) | 0.00655 | 2.01 | 0.339 | 0.155
